Changes are numbered by the printed parent chain. Like-named read-outs stand apart in the source and are kept apart here. No constants are given. Whether binding was seen depends on the method and setting. Binding seen in cells or lysates may run through a third protein. A result given as binding can be weak or reduced; the word gives no strength. Where a sequence is shown, tags or fusion partners need not be part of it.
What was measured:
Test in all cases: co-IP
[1] = molecular target: T1, GFP-tagged wild-type COA8 (human) (UniProt Q96IL0)
T1 sequence: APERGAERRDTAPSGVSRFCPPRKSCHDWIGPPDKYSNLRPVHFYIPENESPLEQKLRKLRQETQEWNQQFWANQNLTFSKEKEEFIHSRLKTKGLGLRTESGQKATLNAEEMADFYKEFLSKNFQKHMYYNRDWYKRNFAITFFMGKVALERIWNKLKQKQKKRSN

[2] = molecular target: T2, GFP-tagged COA8 W174A variant (human) (UniProt Q96IL0)
T2 sequence: T1 sequence with W135A

[3] = molecular target: T1, GFP-tagged wild-type COA8 (human); remark: listed apart in the source

Measured: binding

COX10, heme O synthase (enzyme)
binds: all assays above
